Source: PMC3894558, “Chemical signatures and new drug targets for gametocytocidal drug development” (Scientific Reports, 2014)

Legend:
[1] = system: P. falciparum 3D7 gametocyte lysates; assay: drug affinity responsive target stability (DARTS); format: binding, Plasmodium falciparum; details: 600 nM; Positive = Torin 2 protected, Negative = Torin 1 protected
[2] = system: P. falciparum 3D7 gametocyte lysates; assay: affinity precipitation (pull-down) with mass spectrum analysis; format: binding, Plasmodium falciparum; details: Positive = Torin 2, Negative = Torin 1 affinity precipitation

CCC(=O)N1CCN(c2ccc(-n3c(=O)ccc4cnc5ccc(-c6cnc7ccccc7c6)cc5c43)cc2C(F)(F)F)CC1 [Torin 1, 1-[4-[4-(1-Oxopropyl)-1-piperazinyl]-3-(trifluoromethyl)phenyl]-9-(3-quinolinyl)-benzo[h]-1,6-naphthyridin-2(1H)-one]
DARTS, peptides of Aspartate carbamoyltransferase (PF3D7_1344800) [1]: 0
DARTS, peptides of Phosphoribosyl pyrophosphate synthetase (PF3D7_1325100) [1]: 0
DARTS, peptides of Transporter, putative (PF3D7_0914700) [1]: 0
Pull-down, peptides of Aspartate carbamoyltransferase (PF3D7_1344800) [2]: 0
Pull-down, peptides of Phosphoribosyl pyrophosphate synthetase (PF3D7_1325100) [2]: 0
Pull-down, peptides of Transporter, putative (PF3D7_0914700) [2]: 0

Nc1ccc(-c2ccc3ncc4ccc(=O)n(-c5cccc(C(F)(F)F)c5)c4c3c2)cn1 [Torin 2, 9-(6-Amino-3-pyridinyl)-1-[3-(trifluoromethyl)phenyl]-benzo[h]-1,6-naphthyridin-2(1H)-one]
DARTS, peptides of Aspartate carbamoyltransferase (PF3D7_1344800) [1]: 4
DARTS, peptides of Phosphoribosyl pyrophosphate synthetase (PF3D7_1325100) [1]: 6
DARTS, peptides of Transporter, putative (PF3D7_0914700) [1]: 1
Pull-down, peptides of Aspartate carbamoyltransferase (PF3D7_1344800) [2]: 2
Pull-down, peptides of Phosphoribosyl pyrophosphate synthetase (PF3D7_1325100) [2]: 4
Pull-down, peptides of Transporter, putative (PF3D7_0914700) [2]: 3
